Experimental data from the supplement of paper PMC8256030.
Structures can show the parent of a compound that is named as a salt. The list shows a part of the results. This data set is noisy: repeats of one test often differ as much as different tests do.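 HEK293T cells were given each compound shortly before transfection with a reporter in which red mCherry is followed by the SARS-CoV-2 frameshift element and then GFP in the −1 frame, so GFP appears only after frameshifting.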

Each compound was assayed on SARS-CoV-2 -1 PRF reporter mCherry-FSE-GFP(-1) (assay: mCherry (red) intensity as percent of control; higher = higher upstream reporter expression). Details: 10 µM; 24 h; HEK293T.
In the case of `Cc1cc(-n2c(=O)[nH]c(=O)n(C)c2=O)ccc1Oc1ccc(SC(F)(F)F)cc1` [toltrazuril], the mCherry is reported as 105%.
Work on `COc1c(N2C[C@@H]3CCCN[C@@H]3C2)c(F)cc2c(=O)c(C(=O)O)cn(C3CC3)c12` [Moxifloxacin·HCl] yielded a mCherry of 87.1%.
In the case of `CN1CCC(=C2c3ccccc3CCn3c(C=O)cnc32)CC1` [alcaftadine], the mCherry is reported as 105%.
Compound `CCN1CCCC1CNC(=O)c1cc(S(N)(=O)=O)ccc1OC` (stereo not given) has a mCherry of 76.7%.
Work on `CCN(CC)CCOC(=O)C(c1ccccc1)c1ccccc1` [adiphenine] yielded a mCherry of 90.6%.

Each compound was assayed on SARS-CoV-2 -1 PRF reporter mCherry-FSE-GFP(-1) (assay: percent effect, decrease of GFP/mCherry ratio (-1 PRF reporter) relative to controls; higher = stronger frameshift inhibition). Details: 10 µM; 24 h; HEK293T.
With `CCCCCCCCCCCC(=O)OC[C@@H](O)[C@H]1OC[C@H](O)[C@H]1O` [sorbitan laurate] the percent effect was -8.66%.
`O=C(O)CC/C=C\CC[C@@H]1[C@@H](N2CCCCC2)[C@@H](O)C[C@@H]1OCc1ccc(-c2ccccc2)cc1` [vapiprost] showed a percent effect of -0.129%.
`CC(C)C(N)C(=O)O` (stereo not given) was tested, and the percent effect was -2.35%.
`CN1CC(=O)N2[C@H](c3ccc4c(c3)OCO4)c3[nH]c4ccccc4c3C[C@@H]2C1=O` was tested, and the percent effect was -1.31%.
`NC(=O)C1=C(O)[C@@]2(O)C(=O)C3=C(O)c4c(O)cccc4C[C@H]3C[C@H]2CC1=O` [incyclinide] was tested, and the percent effect was -9.32%.
In the case of `Cc1c(C(=O)NN2CCCCC2)nn(-c2ccc(Cl)cc2Cl)c1-c1ccc(Cl)cc1` [rimonabant], the percent effect is reported as -2.17%.
`N=C(N)NCC1COC2(CCCCC2)O1` (stereo not given) showed a percent effect of -1.6%.
Compound `CC(=O)O[C@]1(C(C)=O)CC[C@H]2[C@@H]3C=C(C)C4=CC(=O)CC[C@]4(C)[C@H]3CC[C@@]21C` [Megestrol Acetate] has a percent effect of 3.12%.
Work on `Oc1ccc(C2CNCCc3c2cc(O)c(O)c3Cl)cc1` (stereo not given) [fenoldopam] yielded a percent effect of 0.724%.
`COC(=O)N/N=C/c1c[n+]([O-])c2ccccc2[n+]1[O-]` [carbadox] showed a percent effect of -11.2%.
`C[C@@H]1C[C@H]2[C@@H]3C[C@H](F)C4=CC(=O)C=C[C@]4(C)[C@H]3[C@@H](O)C[C@]2(C)[C@H]1C(=O)CO` [Fluocortolone] gave a percent effect of -0.645%.
With `CCC(C)C(C)C1Nc2cc(Cl)c(S(N)(=O)=O)cc2S(=O)(=O)N1` (stereo not given) [mebutizide] the percent effect was 3.88%.
In the case of `NC(=O)[C@@H]1CCCN1C(=O)[C@H](Cc1c[nH]cn1)NC(=O)[C@@H]1CCC(=O)N1`, the percent effect is reported as -1.6%.
Compound `CCCCOC(=O)c1ccc(O)cc1` has a percent effect of -11.8%.
With `CN1CC(=O)N=C1N` the percent effect was 1.72%.
Compound `CN(C)c1cnccn1` has a percent effect of -4.9%.
With `CC[C@]1(O)C[C@@H]2CN(CCc3c([nH]c4ccccc34)[C@@](C(=O)OC)(c3cc4c(cc3OC)N(C)[C@H]3[C@@](O)(C(=O)OC)[C@H](OC(C)=O)[C@]5(CC)C=CCN6CC[C@]43[C@@H]65)C2)C1` [Velban] the percent effect was -13%.
With `CCN(CC)C(C)CN1c2ccccc2Sc2ccccc21` (stereo not given) [profenamine] the percent effect was -4.38%.
`NCCNC(=O)c1ccc(Cl)cn1` [lazabemide] showed a percent effect of -10.5%.
Compound `O=C(O)/C=C/c1ccc(Cn2ccnc2)cc1` [ozagrel] has a percent effect of -0.902%.
`Clc1ccccc1CN1CCc2sccc2C1` showed a percent effect of 2.77%.
Work on `CO[C@H]1C[C@@H]2CC[C@@H](C)[C@@](O)(O2)C(=O)C(=O)N2CCCC[C@H]2C(=O)O[C@H]([C@H](C)C[C@@H]2CC[C@@H](OC(=O)C(C)(CO)CO)[C@H](OC)C2)CC(=O)[C@H](C)/C=C(\C)[C@@H](O)[C@@H](OC)C(=O)[C@H](C)C[C@H](C)/C=C/C=C/C=C/1C` [Temsirolimus] yielded a percent effect of -2.45%.
`Nc1nc2ccc(OC(F)(F)F)cc2s1` [Riluzole·HCl] was tested, and the percent effect was 11.7%.
In the case of `CC1(C)C[C@@H]1C(=O)N/C(=C\CCCCSC[C@H](N)C(=O)O)C(=O)O` [Cilastatin], the percent effect is reported as 0.249%.
In the case of `O=C([O-])[C@H](O)[C@@H](O)[C@H](O)[C@H](O)CO.O=C([O-])[C@H](O)[C@@H](O)[C@H](O)[C@H](O)CO.[Ca+2]`, the percent effect is reported as -3.83%.
With `N[C@@H]1[C@H]2CN(c3nc4c(cc3F)c(=O)c(C(=O)O)cn4-c3ccc(F)cc3F)C[C@@H]12` [trovafloxacin] the percent effect was 5.96%.
Compound `NC(=O)CC(N)C(=O)O` (stereo not given) has a percent effect of -2.79%.
For `CS(=O)(=O)c1ccc([C@H](O)[C@@H](COC(=O)CN)NC(=O)C(Cl)Cl)cc1` [Thiamphenicol glycinate], the percent effect was -3.13%.
For `N#Cc1cc(NC(=O)C(=O)O)c(Cl)c(NC(=O)C(=O)O)c1` [lodoxamide], the percent effect was 0.158%.
For `Cc1cc(N)c2ccccc2[n+]1CCCCCCCCCC[n+]1c(C)cc(N)c2ccccc21` [dequalinium chloride], the percent effect was -1.76%.
For `Nc1nc2c(c(=O)[nH]1)N(C=O)C(CNc1ccc(C(=O)N[C@@H](CCC(=O)O)C(=O)O)cc1)CN2` (stereo not given in full), the percent effect was -2.77%.
`C[C@@H](O)[C@H]1C(=O)N2C(C(=O)O)=C(S[C@@H]3CN[C@H](C(=O)N(C)C)C3)[C@H](C)[C@H]12` was tested, and the percent effect was -4.77%.
For `C[C@]12CCC(=O)C=C1CC[C@@H]1[C@@H]2C(=O)C[C@@]2(C)[C@H]1CC[C@]2(O)C(=O)CO` [cortisone], the percent effect was -3.02%.
Work on `[N-]=[N+]=NCC(=O)N[C@H](CO)[C@H](O)c1ccc([N+](=O)[O-])cc1` [azidamfenicol] yielded a percent effect of -4.21%.
`Cc1cc2c(s1)Nc1ccc(F)cc1N=C2N1CCN(C)CC1` [flumezapine] was tested, and the percent effect was 1.81%.
Work on `Cc1cc(-n2c(=O)[nH]c(=O)n(C)c2=O)ccc1Oc1ccc(SC(F)(F)F)cc1` [toltrazuril] yielded a percent effect of -0.616%.
`COc1c(N2C[C@@H]3CCCN[C@@H]3C2)c(F)cc2c(=O)c(C(=O)O)cn(C3CC3)c12` [Moxifloxacin·HCl] gave a percent effect of 3.61%.
With `CN1CCC(=C2c3ccccc3CCn3c(C=O)cnc32)CC1` [alcaftadine] the percent effect was -0.287%.
`CCN1CCCC1CNC(=O)c1cc(S(N)(=O)=O)ccc1OC` (stereo not given) was tested, and the percent effect was -1.87%.
Compound `CCN(CC)CCOC(=O)C(c1ccccc1)c1ccccc1` [adiphenine] has a percent effect of 0.402%.
